Laboratory results: patent US20110262395A1, “SENSORY RECEPTORS FOR CHRONIC FATIGUE AND PAIN AND USES THEREOF” (UNIVERSITY OF UTAH RESEARCH FOUNDATION, priority 2008, published 2011)
Some results were stated once for a whole list of compounds, not compound by compound. At least one compound was matched to its structure with a doubt left.

Test system: DRG neurons
Assay: Calcium imaging of cultured DRG neurons: antagonist effects on responses to capsaicin, ATP or KCl (selectivity control)
Assay type: cell-based, mouse
Conditions: antagonist 2 μM; 200 nM capsaicin
Description: Harvesting/culturing cells/loading cells: Thirty-nine three week old (4 wells of DRG neurons plated from each mouse), C57Bl/6 mice were anesthetized with isoflurane, and euthanized by cervical dislocation. Dorsal root ganglia (DRG) from lumbar regions were removed into HBSS, treated with trypsin, washed with MEM (Invitrogen 51200-038) containing 10% FBS (Hyclone), 2.4% glucose, 1% glutamax (Invitrogen 35050-061) and 1% penicillin/streptomycin (Atlanta Biological B2110). DRG were triturated, pre-plated and incubated at 37° C. for one hour to reduce non-neuronal cells. Neurons were gently swirled and centrifuged (110×g, 5 min). Cells were removed, re-suspended and 30 μL plated onto the 4 center wells of 24-well plates coated with poly-L-lysine and laminin. A 0.5 mm thick silicone ring with a 4 mm diameter opening sealed to the surface of each well reduced the plating area in each well. […]
Imaging procedure: All experiments were performed at room temperature (20-25° C.) to allow correspondence with most previous experiments using calcium imaging and patch clamp of DRG neurons. […] Capsaicin activation indicated the presence of TRPV1 receptors on neurons, and KCl ensured that recorded objects were active neurons, and established the maximal calcium response in each neuron. […]

Cc1ccc(CC(CNC(=S)NCc2ccc(NS(C)(=O)=O)c(F)c2)COC(=O)C(C)(C)C)cc1C (stereo not shown) [JYL-1433]
percent of neurons responding to capsaicin in presence of antagonist: less than 2%
